PubChem BioAssay AID1259425 – University of Nebraska Medical Center – 2018
In all, the deposit lists about 14,000 reagents; this is a random part of them. Further read-outs or replicates are left out here. Not stated in the record: the time to read-out.

Screen: 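Seek colon cancer weak points whose silencing resembles KSR1 loss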 (primary screen)
System: HCT116 human colon cancer cells
Reagents: siRNA pool against human genes, 50 nM siRNA
Measurement: 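After 50 nM siRNA pool, branched-DNA assay measures six marker transcripts per well, minus blank, normalised to the geometric mean of two housekeeping transcripts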
Direction: BNIP3L mRNA: higher = more BNIP3L transcript after knockdown; NDRG1 mRNA: higher = more NDRG1 transcript after knockdown; BNIP3 mRNA: higher = more BNIP3 transcript after knockdown; ALDOC mRNA: higher = more ALDOC transcript after knockdown

| Gene | BNIP3L mRNA, set 1 | NDRG1 mRNA, set 1 | BNIP3 mRNA, set 1 | ALDOC mRNA, set 1 |
| --- | --- | --- | --- | --- |
| TYMS | 0.0827 | 0.319 | 0.379 | 0.0228 |
| GAGE12I | 0.189 | 0.568 | 0.274 | 0.0221 |
| METTL3 | 0.15 | 0.358 | 0.415 | 0.0616 |
| CCNT1 | 0.0592 | 0.117 | 0.218 | 0.0174 |
| ARF4 | 0.0939 | 0.148 | 0.231 | 0.0291 |
| BMP7 | 0.107 | 0.322 | 0.0964 | 0.05 |
| LRRC37A4P | 0.0813 | 0.0752 | 0.235 | 0.0239 |
| TNIP3 | 0.12 | 0.151 | 0.396 | 0.0401 |
| PLEKHG3 | 0.18 | 0.943 | 0.223 | 0.0234 |
| TNXB | 0.202 | 0.307 | 0.283 | 0.00622 |
| ZDHHC2 | 0.152 | 0.406 | 0.27 | 0.0395 |
| NOSIP | 0.154 | 0.541 | 0.302 | 0.0324 |
| PHC1 | 0.194 | 0.202 | 0.733 | 0.0147 |
| VPS50 | 0.12 | 0.183 | 0.303 | 0.0136 |
| TCOF1 | 0.0774 | 0.117 | 0.205 | 0.00768 |
| AQP9 | 0.156 | 0.241 | 0.32 | 0.0195 |
| ESYT3 | 0.446 | 0.163 | 0.608 | 0.0516 |
| NME8 | 0.0763 | 0.0833 | 0.306 | 0.0133 |
| HAX1 | 0.118 | 0.743 | 0.374 | 0.0747 |
| EPC2 | 0.206 | 0.158 | 0.458 | 0.0397 |
| PLD3 | 0.133 | 0.315 | 0.307 | 0.0176 |
| HNRNPH1 | 0.126 | 0.384 | 0.148 | 0.0375 |
| EYA2 | 0.148 | 0.185 | 0.38 | 0.019 |
| SEPTIN11 | 0.0833 | 0.157 | 0.404 | 0.0119 |
| FBXO34 | 0.0731 | 0.526 | 0.302 | 0.0164 |
| CETN3 | 0.409 | 0.6 | 0.74 | 0.00512 |
| CD5L | 0.106 | 0.135 | 0.278 | 0.0319 |
| HMX1 | 0.121 | 0.113 | 0.263 | 0.0198 |
| LGALS2 | 0.25 | 0.0577 | 0.378 | 0.0112 |
| SNCG | 0.231 | 1.32 | 0.52 | 0.156 |
| CASP8 | 0.0753 | 0.156 | 0.223 | 0.0183 |
| WARS1 | 0.0563 | 0.232 | 0.265 | 0.012 |
| USP31 | 0.11 | 0.227 | 0.3 | 0.0289 |

An excerpt from the list above, as a working copy:
| Gene | BNIP3L mRNA, set 1 | NDRG1 mRNA, set 1 | BNIP3 mRNA, set 1 | ALDOC mRNA, set 1 |
| --- | --- | --- | --- | --- |
| VPS50 | 0.12 | 0.183 | 0.303 | 0.0136 |
| TCOF1 | 0.0774 | 0.117 | 0.205 | 0.00768 |
| AQP9 | 0.156 | 0.241 | 0.32 | 0.0195 |
| ESYT3 | 0.446 | 0.163 | 0.608 | 0.0516 |
| NME8 | 0.0763 | 0.0833 | 0.306 | 0.0133 |
| HAX1 | 0.118 | 0.743 | 0.374 | 0.0747 |

The results go on:
| Gene | BNIP3L mRNA, set 1 | NDRG1 mRNA, set 1 | BNIP3 mRNA, set 1 | ALDOC mRNA, set 1 |
| --- | --- | --- | --- | --- |
| STK33 | 0.0636 | 0.0864 | 0.163 | 0.00617 |
| EFCAB14 | 0.0981 | 0.0467 | 0.437 | 0.00943 |
| PAH | 0.0604 | 0.151 | 0.245 | 0.0305 |
| ADAM30 | 0.0841 | 0.182 | 0.28 | 0.0206 |
| PSMB6 | 0.204 | 0.743 | 0.334 | 0.0862 |
| SLC17A6 | 0.053 | 0.119 | 0.22 | 0.0166 |
| RSPH3 | 0.194 | 0.401 | 0.381 | 0.0419 |
| QRSL1 | 0.142 | 0.208 | 0.259 | 0.0292 |
| COPG1 | 0.191 | 0.233 | 0.278 | 0.036 |
| SRSF2 | 0.146 | 0.283 | 0.321 | 0.00415 |
| LAMC2 | 0.0932 | 0.166 | 0.231 | 0.0352 |
| SOX21 | 0.113 | 0.132 | 0.314 | 0.0132 |
| HAPSTR1 | 0.105 | 0.8 | 0.228 | 0.0351 |
| FOSB | 0.0951 | 0.0702 | 0.278 | 0.0223 |
| GAGE2C | 0.146 | 0.405 | 0.278 | 0.023 |
| GNG5 | 0.172 | 0.167 | 0.426 | 0.0379 |
| ADAMTS5 | 0.077 | 0.0553 | 0.205 | 0.0238 |
